Source: publication PMC4695046
Read-outs that look alike come from different tables or passages of the source. Results are given in words; binding and its absence hold for the method and conditions named. Some binding calls cover weakened binding; strength is not graded here. Blank lines part the entries; values can stand above or below the molecule they belong to.

Protein sequences, listed by entry. Tags and fused reporters are not part of them. Residues count along the entry.
UniProt P07339, residues 65-412: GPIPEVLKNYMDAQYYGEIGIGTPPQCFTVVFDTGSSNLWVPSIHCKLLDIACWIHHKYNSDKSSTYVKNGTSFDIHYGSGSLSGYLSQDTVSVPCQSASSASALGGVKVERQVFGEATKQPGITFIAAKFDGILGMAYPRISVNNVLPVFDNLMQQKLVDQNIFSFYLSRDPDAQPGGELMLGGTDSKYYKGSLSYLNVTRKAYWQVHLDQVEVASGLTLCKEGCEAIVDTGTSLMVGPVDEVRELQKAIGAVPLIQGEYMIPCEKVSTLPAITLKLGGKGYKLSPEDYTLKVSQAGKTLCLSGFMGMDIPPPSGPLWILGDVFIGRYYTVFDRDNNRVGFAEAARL
UniProt P46379, residues 376-659: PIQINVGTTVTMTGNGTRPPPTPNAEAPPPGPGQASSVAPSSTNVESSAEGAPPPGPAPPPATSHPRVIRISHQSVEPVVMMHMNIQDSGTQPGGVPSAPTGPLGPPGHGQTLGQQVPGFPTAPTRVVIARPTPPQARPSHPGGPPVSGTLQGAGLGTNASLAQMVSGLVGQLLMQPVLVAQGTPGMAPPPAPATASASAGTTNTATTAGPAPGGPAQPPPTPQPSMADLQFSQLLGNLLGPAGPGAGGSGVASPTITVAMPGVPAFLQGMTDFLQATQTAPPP

How the values were obtained:
[1] = target: 48-kDa Cath-D form (aa 65–412 of human cathepsin D), yeast two-hybrid bait (human) (UniProt P07339); assay: two-hybrid; screen by Hybrigenics Services; Cath-D aa 65-412 as bait against a randomly-primed human breast tumor epithelial cell cDNA library
[2] = target: 48-kDa Cath-D form (aa 65–412 of human cathepsin D), yeast two-hybrid bait (human) (UniProt P07339); assay: as above; remark: listed apart in the source

binding [1]: binds
Molecule: BAT3 clone (residues 376–659) identified in the yeast two-hybrid screen (from UniProt P46379 376-659) (domain or fragment)

binding [2]: binds
B1: TRPS1 clone (residues 635–1281) identified in the yeast two-hybrid screen (domain or fragment, UniProt Q9UHF7 635-1281)
chain: SVHESQASDVKQEANHLQGSDGQQSVKESKEHSCTKCDFITQVEEEISRHYRRAHSCYKCRQCSFTAADTQSLLEHFNTVHCQEQDITTANGEEDGHAISTIKEEPKIDFRVYNLLTPDSKMGEPVSESVVKREKLEEKDGLKEKVWTESSSDDLRNVTWRGADILRGSPSYTQASLGLLTPVSGTQEQTKTLRDSPNVEAAHLARPIYGLAVETKGFLQGAPAGGEKSGALPQQYPASGENKSKDESQSLLRRRRGSGVFCANCLTTKTSLWRKNANGGYVCNACGLYQKLHSTPRPLNIIKQNNGEQIIRRRTRKRLNPEALQAEQLNKQQRGSNEEQVNGSPLERRSEDHLTESHQREIPLPSLSKYEAQGSLTKSHSAQQPVLVSQTLDIHKRMQPLHIQIKSPQESTGDPGNSSSVSEGKGSSERGSPIEKYMRPAKHPNYSPPGSPIEKYQYPLFGLPFVHNDFQSEADWLRFWSKYKLSVPGNPHYLSHVPGLPNPCQNYVPYPTFNLPPHFSAVGSDNDIPLDLAIKHSRPGPTANGASKEKTKAPPNVKNEGPLNVVKTEKVDRSTQDELSTKCVHCGIVFLDEVMYALHMSCHGDSGPFQCSICQHLCTDKYDFTTHIQRGLHRNNAQVEKNGKPKE
